In patent US20250034212A1 (PEPTIDREAM INC., priority 2021, published 2025):

Assay: general procedure: Fmoc solid-phase peptide synthesis; Fmoc-Sieber amide resin (0.47 mmol/g); HA-tag resin (0.65 mmol/g)
Conditions: UV 225 nm

Row | Substance | final purity (method not given) (whole synthesis) [%] | final purity (method not given) (conjugation step) [%]
1 | F-Nal1-V-V-N-V-Y-D-D-PeG-V-Nal1-Y-H-V-C-G | 96.0 | –
2 | F-Nal1-V-V-N-V-4Py-D-D-PeG-V-Nal1-Y-H-KCOpipzaa-C-G K(MePEG8c) | – | 98.2
